# Data published in PubChem BioAssay AID588590 (National Center for Advancing Translational Sciences (NCATS), 2011).
# Amino acid sequences for entries named in this document (tags omitted). A change or cut given only in a name is not applied to a line headed by its entry.
# UniProt Q9UNA4: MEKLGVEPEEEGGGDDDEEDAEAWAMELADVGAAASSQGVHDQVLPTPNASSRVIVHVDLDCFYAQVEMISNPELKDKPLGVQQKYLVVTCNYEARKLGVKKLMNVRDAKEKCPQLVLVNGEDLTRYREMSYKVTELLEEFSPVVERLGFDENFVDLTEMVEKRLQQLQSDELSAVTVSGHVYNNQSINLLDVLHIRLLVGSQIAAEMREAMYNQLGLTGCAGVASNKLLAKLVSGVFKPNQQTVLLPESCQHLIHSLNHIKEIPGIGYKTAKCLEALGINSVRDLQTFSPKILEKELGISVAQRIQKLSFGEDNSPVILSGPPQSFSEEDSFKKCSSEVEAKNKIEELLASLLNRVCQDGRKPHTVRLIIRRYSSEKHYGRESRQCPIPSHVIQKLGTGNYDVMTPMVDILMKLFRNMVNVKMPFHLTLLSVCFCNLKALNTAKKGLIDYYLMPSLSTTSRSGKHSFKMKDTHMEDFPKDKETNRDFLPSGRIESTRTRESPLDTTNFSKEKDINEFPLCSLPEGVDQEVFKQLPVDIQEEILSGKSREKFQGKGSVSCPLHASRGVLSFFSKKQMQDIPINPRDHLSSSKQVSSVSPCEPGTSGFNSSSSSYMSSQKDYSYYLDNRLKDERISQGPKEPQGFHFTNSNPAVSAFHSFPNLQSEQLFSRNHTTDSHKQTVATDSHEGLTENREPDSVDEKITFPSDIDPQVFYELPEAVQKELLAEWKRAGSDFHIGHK
# The whole screen tested about 390,000 compounds, of which about 4,000 (1%) were called active. Inconclusive results, whose numbers are uncertain, are shown with a selection of clear calls. Calls follow the shape of the dose curve; as a rule, active = well fitted inhibition curve with a large enough effect; inconclusive = small, poorly fitted or top-dose-only effect, or another doubt; inactive = no such curve, though single readings can be large or run the other way. Where the call is inconclusive, the potency comes from a doubtful curve fit.
# Target: DNA polymerase iota (Homo sapiens) (UniProt Q9UNA4)
# Assay: qHTS for Inhibitors of Polymerase Iota
# Settings: Pol iota fluorescent replication assay, 10 min; series mostly up to 115 µM; activity, negative = inhibition: at the top concentration
# Outline: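 Fluorescent replication assay read twice, at 0 min and 10 min after adding 50 nM (final) substrate. Enzyme (10 nM) and compounds were first incubated 15 min at room temperature; enzyme-free buffer wells were negative controls.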
# Potency is read from the fitted curve at half-maximal effect.
SMILES,Potency,"activity, negative = inhibition"
CNC(=O)c1ccccc1NC(=O)c1cccc(S(=O)(=O)N2CCCCC2)c1,"inconclusive: 100 µM [inhibitor, single point]",–
Cc1cc2nc(-c3ccc(OCc4ccccc4F)cc3)cc(C(F)(F)F)n2n1,"inconclusive: 3.98 µM [inhibitor, partial curve, poor fit]",–
Cc1nnc(NC(=O)c2sc3nc(-c4cccs4)cc(C(F)(F)F)c3c2N)s1,active: 28.2 µM,–
Cc1nc2cc(N=NC3=C(O)CCCC3=O)ccc2s1,active: 50.1 µM,–
Cc1cccc(C(=O)Oc2csc(=S)n2C(=O)c2cccc(C)c2)c1,"inconclusive: 11.2 µM [inhibitor, partial curve]",–
Cn1c(NCCN)nc2c1c(=O)n(Cc1ccccc1)c(=O)n2C,"inconclusive: 89.1 µM [inhibitor, partial curve, poor fit]",–
Cc1ccc(C)c(Cn2c(SCC(=O)NCc3ccccc3)nc3ccccc32)c1,"inconclusive: 89.1 µM [inhibitor, single point]",–
COc1ccc(/C(C)=N/NC(=O)CNC(=O)/C=C\c2ccco2)cc1,active: 50.1 µM,–
CCOC(=O)C1(CCCc2ccccc2)CCN(S(=O)(=O)N(C)C)CC1,–,inactive: 27%
CC(C)CN(CC(C)C)C(=O)CCCC(=O)N(CC(C)C)CC(C)C,"inconclusive: 112 µM [inhibitor, single point]",–
COc1ccc(NC(=O)Cn2c(=O)n(-c3ccc(OC)cc3)c(=O)c3sc4ccccc4c32)cc1,–,inactive: 45.6%
O=C1c2cccnc2C(Nc2ccc(F)c(Cl)c2)N1Cc1cccs1 (centres undefined),"inconclusive: 28.2 µM [inhibitor, partial curve, poor fit]",–
O=C(Cn1cc(S(=O)(=O)Cc2ccccc2F)c2ccccc21)Nc1ccc(F)c(Cl)c1,"inconclusive: 89.1 µM [inhibitor, single point]",–
CC(=O)Nc1ccc(S(=O)(=O)NCc2ccc(C(=O)NCCN3CCCCCC3)cc2)cc1,"inconclusive: 35.5 µM [inhibitor, single point]",–
Cc1ccc(N2CC(=O)Nc3c(sc4nc(C)cc(C)c34)C2=O)cc1,"inconclusive: 89.1 µM [inhibitor, single point]",–
O=C(COC(=O)c1ccc[nH]c1=O)NC1CCCC1,"inconclusive: 79.4 µM [inhibitor, single point]",–
C/C(=N/Nc1ncc(C(F)(F)F)cc1Cl)c1ccncc1,"inconclusive: 89.1 µM [inhibitor, single point]",–
COc1ccc(C(=O)Nc2ccc(-c3nc4ccccc4s3)c(Cl)c2)cc1Cl,–,inactive: -8.23%
CCC(C)(C)n1nnnc1C(c1ccc(Cl)cc1)N1CCN(C)CC1 (centres undefined),"inconclusive: 63.1 µM [inhibitor, partial curve, poor fit]",–

# An excerpt from the list above:
SMILES,Potency,"activity, negative = inhibition"
Cc1ccc(C)c(Cn2c(SCC(=O)NCc3ccccc3)nc3ccccc32)c1,"inconclusive: 89.1 µM [inhibitor, single point]",–
COc1ccc(/C(C)=N/NC(=O)CNC(=O)/C=C\c2ccco2)cc1,active: 50.1 µM,–
